Reference: PubChem BioAssay AID1224830 (NIAID, 2016)
Here is an unselected part of about 18,000 reagents tested. Of all reagents, about 2,900 (16%) got an active call. 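Calls are made per well; low scores hint the gene aids the LPS response, high scores that it dampens it.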 Unmarked entries are inactive. Repeated entries: four replicate wells of each siRNA pool.

- Assay: 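Genes whose knock-down alters the TNF-alpha reporter response to LPS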 (primary screen)
- Cells: human THP-1 monocytic leukaemia cells, TNF dual-luciferase reporter clone, PMA-differentiated to macrophage-like cells
- Reagent: siRNA pool against human genes, 50 nM
- Duration: LPS for 4 h, given about 3 days after siRNA transfection
- Conditions: bacterial LPS (TLR4 ligand), 10 ng/ml
- Measured: 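TNF firefly reporter luminescence divided by renilla, normalised to the plate median, then turned into a robust z-score for each replicate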
- Scale: TNF reporter robust z-score: higher = stronger TNF reporter response to LPS
- Hit rule: 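Each well counts as active if its z-score is over 2.8 or under -1.5; controls are left without a call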

no.	gene symbol	TNF reporter robust z-score
1	OR7A17	0
2	OR7A17	1.09
3	OR7A17	0.48
4	OR7A17	1.05
5	ZDHHC13	0.16
6	ZDHHC13	-0.12
7	ZDHHC13	-0.33
8	ZDHHC13	0.69
9	ZNF649	0.14
10	ZNF649	1.68
11	ZNF649	0.68
12	ZNF649	2.28
13	TBC1D3B	-1.7 (active)
14	TBC1D3B	-1.25
15	TBC1D3B	-1.05
16	TBC1D3B	-1.23
17	KMT2A	3.12 (active)
18	KMT2A	0.71
19	KMT2A	-0.8
20	KMT2A	4.31 (active)
21	PRMT3	0.55
22	PRMT3	0.84
23	PRMT3	0.44
24	PRMT3	0.68
25	QPCTL	-1.22
26	QPCTL	-1.09
27	QPCTL	-1.44
28	QPCTL	-0.56
29	IL22	-1.15
30	IL22	-0.75
31	IL22	-1.11
32	IL22	-0.86
33	GOPC	3.64 (active)
34	GOPC	0.01
35	GOPC	-0.79
36	GOPC	-0.31
37	SFTPC	-0.7
38	SFTPC	-1.15
39	SFTPC	-0.97
40	SFTPC	-0.21
41	SEPTIN12	-0.83
42	SEPTIN12	-0.75
43	SEPTIN12	-0.64
44	CENPK	0.22
45	CENPK	0.74
46	CENPK	0.13
47	CENPK	0.6
48	BCL11B	-1.02
49	BCL11B	-1.07
50	BCL11B	-0.11
51	BCL11B	-0.87
52	RNF138	-0.45
53	RNF138	-0.57
54	RNF138	-0.21
55	RNF138	-0.28
56	PIK3R4	-0.2
57	PIK3R4	0.68
58	PIK3R4	-1.35
59	PIK3R4	-0.07
60	NOP2	-1.34
61	NOP2	-1.1
62	NOP2	-0.89
63	PICK1	2.41
64	PICK1	3.29 (active)
65	PICK1	6.22 (active)
66	PICK1	2.89 (active)
67	BRINP3	-1.43
68	BRINP3	-0.65
69	BRINP3	-0.41
70	BRINP3	-0.77
71	BICD1	-0.47
72	BICD1	-0.68
73	BICD1	-0.38
74	BICD1	-0.28
75	SMAD3	-0.35
76	SMAD3	0.02
77	SMAD3	0.08
78	SMAD3	0.62
79	RAD17	-0.17
80	RAD17	0.17
81	RAD17	-0.06
82	RAD17	0.22
83	SLC38A1	-1.59 (active)
84	SLC38A1	-0.72
85	SLC38A1	-1.15
86	SLC38A1	-1.45
87	YIPF2	0.98
88	YIPF2	1.52
89	YIPF2	0.18
90	YIPF2	1.3
91	OR6K6	1.45
92	OR6K6	1.66
93	OR6K6	1.62
94	HIF3A	1.86
95	HIF3A	1.97
96	HIF3A	0.62
97	HIF3A	1.99
98	ECPAS	-0.91
99	ECPAS	0.14
100	ECPAS	-0.43
101	ECPAS	0.61
102	GPSM2	-0.16
103	GPSM2	0.12
104	GPSM2	-0.08
105	GPSM2	-0.24
106	COPS6	-1.83 (active)
107	COPS6	-1.28
108	COPS6	-1.39
109	COPS6	-1.15
110	LRP1B	-1.05
111	LRP1B	-0.31
112	LRP1B	-1.13
113	LRP1B	-0.5
114	STRBP	0.01
115	STRBP	-0.94
116	STRBP	-0.48
117	STRBP	-0.13
118	CDC37	0.93
119	CDC37	1.59
120	CDC37	1.81
121	CDC37	1.48
122	PGA4	-1.14
123	PGA4	-0.13
124	PGA4	-0.55
125	PGA4	0.03
126	TYRO3	0.41
127	TYRO3	-0.18
128	TYRO3	0.45
129	TYRO3	0.55
130	MAP3K13	-0.32
131	MAP3K13	0.02
132	MAP3K13	0.42
133	MAP3K13	-0.99
134	OR7C1	0.21
135	OR7C1	0.18
136	OR7C1	0.54
137	OR7C1	0.37
138	PLA2R1	-1.08
139	PLA2R1	-0.64
140	PLA2R1	-0.89
141	PLA2R1	-0.35
